According to paper PMC8718266:

B1: 3xFLAG-KLF2 wild-type [not stated] / FBW7 (endogenous, mESCs) [mouse (endogenous in mESCs)] (parent)
chain 1: MNQELLSVGSKRRRTGGSLRGNASSSQVDEGQMNRVVEEDPQQQARHQEEEHTARNGELVGANPRPGDQNDTQQGQVEENNNRFISVDEDSSGNQEEQEEDEEHAGEQEEEEEEEEEEEEMDQESDDFDPSDDSSREDEHTHNSNVTNCSSVSDLPAHQLSSPFYTKTTKMKRKLDHGSEVRSFSLGKKPCKVSDYTSTTGLVPCSATPTTFGDLRAANGQGQQRRRITSVQPPTGLQEWLKMFQSWSGPEKLLALDELIDSCEPTQVKHMMQVIEPQFQRDFISLLPKELALYVLSFLEPKDLLQAAQTCRYWRILAEDNLLWREKCKEEGIDEPLHIKRRKIIKPGFIHSPWKSAYIRQHRIDTNWRRGELKSPKVLKGHDDHVITCLQFCGNRIVSGSDDNTLKVWSAVTGKCLRTLVGHTGGVWSSQMRDNIIISGSTDRTLKVWNAETGECIHTLYGHTSTVRCMHLHEKRVVSGSRDATLRVWDIETGQCLHVLMGHVAAVRCVQYDGRRVVSGAYDFMVKVWDPETETCLHTLQGHTNRVYSLQFDGIHVVSGSLDTSIRVWDVETGNCIHTLTGHQSLTSGMELKDNILVSGNADSTVKIWDIKTGQCLQTLQGPSKHQSAVTCLQFNKNFVITSSDDGTVKLWDLKTGEFIRNLVTLESGGSGGVVWRIRASNTKLVCAVGSRNGTEETKLLVLDFDVDMK
chain 2: MALSEPILPSFATFASPCERGLQERWPRNEPEAGGTDEDLNNVLDFILSMGLDGLGAENPPEPPPQPPPPAFYYPEPGAPPPYSIPAASLGTELLRPDLDPPQGPALHGRFLLAPPGRLVKAEPPEVDGGGYGCAPGLAHGPRGLKLEGAPGATGACMRGPAGRPPPPPDTPPLSPDGPLRIPASGPRNPFPPPFGPGPSFGGPGPALHYGPPAPGAFGLFEDAAAAAAALGLAPPATRGLLTPPSSPLELLEAKPKRGRRSWPRKRAATHTCSYTNCGKTYTKSSHLKAHLRTHTGEKPYHCNWEGCGWKFARSDELTRHYRKHTGHRPFQCHLCDRAFSRSDHLALHMKRHM

Variants of: B1
Assay: FLAG IP mass spectrometry (spectral counting)
Details: with FBW7 (endogenous, mESCs) [mouse (endogenous in mESCs)]; Klf2+/+ mESCs; parent: 1; read off a plot

Which ratio to parent does the source give for chain 2 T171A S175A T243A S247A here?
Its ratio to parent is 9.6.

Same assay, conditions: with FBW7 (endogenous, mESCs) [mouse (endogenous in mESCs)]; Klf2Δ/Δ mESCs; parent: 1; read off a plot

How did the ratio to parent turn out when chain 2 T171A S175A T243A S247A was run?
The ratio to parent was 13.
